Values quoted from earlier work, collected in patent US9480691B1, “Topical liquid containing refined peanut oil for treating skin proliferation or inflammation disorders” (Hill Dermaceuticals, Inc., priority 2009, dated 2016).
Some entries share one result that the patent states for a list of compounds. At least one structure is not confirmed: it was looked up by name or label, or the drawing left a doubt.

Conditions: topical steroid strength groups (very potent, potent, moderate)

Compound | potency relative to hydrocortisone
CCC(=O)OCC(=O)[C@@]1(OC(=O)CC)[C@@H](C)C[C@H]2[C@@H]3CCC4=CC(=O)C=C[C@]4(C)[C@@]3(F)[C@@H](O)C[C@@]21C [betamethasone dipropionate] | up to 600 times as potent as hydrocortisone
CCCCC(=O)O[C@]1(C(=O)CO)[C@@H](C)C[C@H]2[C@@H]3CCC4=CC(=O)C=C[C@]4(C)[C@@]3(F)[C@@H](O)C[C@@]21C [betamethasone valerate] | 50-100 times as potent as hydrocortisone
CCC(=O)O[C@]1(C(=O)CCl)[C@@H](C)C[C@H]2[C@@H]3CCC4=CC(=O)C=C[C@]4(C)[C@@]3(F)[C@@H](O)C[C@@]21C [clobetasol propionate, (11β,16β)-21-chloro-9-fluoro-11-hydroxy-16-methyl-17-(1-oxo-propoxy)pregna-1,4-diene,3,10-dione] | up to 600 times as potent as hydrocortisone
CCCC(=O)O[C@]1(C(=O)CO)CC[C@H]2[C@@H]3CCC4=CC(=O)CC[C@]4(C)[C@H]3[C@@H](O)C[C@@]21C [hydrocortisone 17-butyrate] | 50-100 times as potent as hydrocortisone
CCC(=O)O[C@]1(C(=O)COC(C)=O)CC[C@H]2[C@@H]3C[C@H](C)C4=CC(=O)C=C[C@]4(C)[C@H]3[C@@H](O)C[C@@]21C [methylprednisolone aceponate] | 50-100 times as potent as hydrocortisone
C[C@@H]1C[C@H]2[C@@H]3CCC4=CC(=O)C=C[C@]4(C)[C@@]3(Cl)[C@@H](O)C[C@]2(C)[C@@]1(OC(=O)c1ccco1)C(=O)CCl [mometasone furoate] | 50-100 times as potent as hydrocortisone
CC1(C)O[C@@H]2C[C@H]3[C@@H]4CCC5=CC(=O)C=C[C@]5(C)[C@@]4(F)[C@@H](O)C[C@]3(C)[C@]2(C(=O)CO)O1 [triamcinolone acetonide] | 2-25 times as potent as hydrocortisone
